Source: patent US7897588B2, “Agents and methods for enhancing bone formation” (The Regents of the University of California, priority 2003, dated 2011)

Columns and labels:
[1] = tested on: M2-10B4 mouse marrow stromal cell line; experiment: Alkaline phosphatase (ALP) activity assay in M2 cells; type: cell-based; conditions: 22R+20S, SC-560 10 μM, ACA 25 μM, AACOCF3 20 μM, PD98059 20 μM
Experimental: Cells: M2-10B4 mouse marrow stromal cell line obtained from American Type Culture Collection (ATCC, Rockville, Md., U.S.A.) was derived from bone marrow stromal cells of a (C57BL/6J×C3H/HeJ) F1 mouse, and support human and murine myelopoiesis in long-term cultures (as per ATCC) and have the ability to differentiate into osteoblastic and adipocytic cells. Unless specified, these cells were cultured in RPMI 1640 containing 10% heat-inactivated FBS, and supplemented with 1 mM sodium pyruvate, 100 U/ml penicillin, and 100 […] (all from Irvine Scientific). […]
Test 1: M2 cells at confluence were treated with control vehicle (C), or 10 μM oxysterols, in an osteogenic medium consisting of RPMI 1640 to which 10% fetal bovine serum (FBS), 50 μg/ml ascorbate and 3 mM beta-glycerophosphate (βGP) were added. After 3 days of incubation, alkaline phosphatase (ALP) activity was determined in cell homogenates by a colorimetric assay. […]
M2 cells at confluence were treated in osteogenic medium with control vehicle (C) or a combination of 22R and 20S oxysterols, at the indicated concentrations. ALP activity was measured after 3 days as described above. […]
Test 2: M2 cells were grown in RPMI medium containing 10% fetal bovine serum (FBS). […] After 4 days, alkaline phosphatase activity was determined in whole cell lysates and normalized to protein. […]

marrow stromal cells = experiment: Osteogenic activity of marrow stromal cells (alkaline phosphatase, mineral formation), overall; type: cell-based, mouse; conditions: M2 cells; SC-560 at 1-20 μM; NS-398 at 20 μM
Experimental: Next, a combination of 22R and 20S oxysterols (RS, 2.5 μM each) were added in the presence or absence of SC as indicated. After 3 days, ALP activity was measured as described earlier. […] (B) M2 cells were treated as described in (A) and after 10 days matrix mineralization in cultures was quantified by a ^45Ca incorporation assay as described earlier. Results from a representative of three experiments are shown, reported as the mean±SD of quadruplicate determinations, normalized to protein concentration. (C) M2 cells were pretreated with 20 μM SC for 4 hours, followed by the addition of RS in the presence or absence of SC as described above. After 8 days, total RNA was isolated and analyzed for osteocalcin (Osc) and 18S rRNA expression by Northern blotting as previously described. Data from densitometric analysis of the Northern blot is shown in (D) as the average of duplicate samples, normalized to 18S rRNA. (E) M2 cells at confluence were pretreated for 2 hours with control vehicle (C), or PLA2 inhibitors ACA (25 μM) and AACOCF3 (AAC, 20 μM), in osteogenic medium. Next, a combination of 22R and 20S oxysterols (RS, 2.5 μM) was added in the presence or absence of the inhibitors as indicated. After 3 days, ALP activity was measured as previously described. […] After 10 days, matrix minerliazation in cultures was quantified using a ^45Ca incorporation assay as previously described. […]

osteocalcin mRNA = experiment: Northern blot for osteocalcin mRNA in M2 cells; type: cell-based, mouse; conditions: 22R+20S, SC-560 20 μM, 8 days, PD98059
Experimental: RNA isolation and Northern blot analysis—Following treatment of cells under appropriate experimental conditions, total RNA was isolated using the RNA isolation kit from Stratagene (La Jolla, Calif., U.S.A.). Total RNA ([…]) was run on a 1% agarose/formaldehyde gel and transferred to Duralon-UV membranes (Strategene, Calif., U.S.A.) and cross-linked with UV light. […] The extent of gene induction was determined by densitometry.
M2 cells at confluence were treated with control vehicle (C) or a combination of 22R and 20S oxysterols (5 μM each) in osteogenic medium. After 4 and 8 days, total RNA from duplicate samples was isolated and analyzed for osteocalcin (Osc) and 28S rRNA expression by Northern blotting as described. […]
(A) M2 cells at confluence were pretreated for 4 hours with control vehicle (C) or 10 μM COX-1 inhibitor SC-560 (SC) in osteogenic medium as described earlier. […] After 3 days, ALP activity was measured as described earlier. […] (B) M2 cells were treated as described in (A) and after 10 days matrix mineralization in cultures was quantified by a ^45Ca incorporation assay as described earlier. […] After 8 days, total RNA was isolated and analyzed for osteocalcin (Osc) and 18S rRNA expression by Northern blotting as previously described. […] After 3 days, ALP activity was measured as previously described. […]

[2] = tested on: M2-10B4 mouse marrow stromal cell line; experiment: Matrix mineralization in M2 cells (von Kossa staining, 45Ca incorporation assay); type: cell-based; conditions: 22R+20S, 10 days, SC-560 10 μM, ACA 25 μM, AACOCF3 20 μM, PD98059 20 μM
Experimental: Cells: M2-10B4 mouse marrow stromal cell line obtained from American Type Culture Collection (ATCC, Rockville, Md., U.S.A.) was derived from bone marrow stromal cells of a (C57BL/6J×C3H/HeJ) F1 mouse, and support human and murine myelopoiesis in long-term cultures (as per ATCC) and have the ability to differentiate into osteoblastic and adipocytic cells. Unless specified, these cells were cultured in RPMI 1640 containing 10% heat-inactivated FBS, and supplemented with 1 mM sodium pyruvate, 100 U/ml penicillin, and 100 […] (all from Irvine Scientific).
Von Kossa and oil red O staining—Matrix mineralization in cell monolayers was detected by silver nitrate staining as previously described. […]
^45Ca incorporation assay—Matrix mineralization in cell monolayers was quantified using the ^45Ca incorporation assay as previously described. […]
M2 cells were treated with control vehicle (C) or a combination of 22R and 20S oxysterols at increasing concentrations. After 14 days, matrix mineralization in cultures was quantified using a ^45Ca incorporation assay. […]
(A) M2 cells at confluence were pretreated for 4 hours with control vehicle (C) or 10 μM COX-1 inhibitor SC-560 (SC) in osteogenic medium as described earlier. […] After 3 days, ALP activity was measured as described earlier. […] After 3 days, ALP activity was measured as previously described. […]

With `COc1ccc(-n2nc(C(F)(F)F)cc2-c2ccc(Cl)cc2)cc1` [SC-560] the “inhibition of oxysterol-induced alkaline phosphatase activity” value [1] was “inhibited”, the “inhibition of the osteogenic effects of oxysterol combinations” value (marrow stromal cells) was “significantly inhibited” and the “inhibition of oxysterol-induced osteocalcin gene expression” value (osteocalcin mRNA) was “inhibited”. The “inhibition of oxysterol-induced mineralization” value [2] was “inhibited”.
